{"source": "paper doi:10.1101/2023.12.22.573068", "binders": {"B1": {"name": "EB1 (endogenous, goat brain) (protein, UniProt A0A452FST7 1-268)", "chain": "MAVNVYSTSVTSDNLSRHDMLAWINESLQLNLTKIEQLCSGAAYCQFMDMLFPGSIALKKVKFQAKLEHEYIQNFKILQAGFKRMGVDKIIPVDKLVKGKFQDNFEFVQWFKKFFDANYDGKEYDPVAARQGQETAVAPSLVAPALNKPKKPLSSSSAAPQRPIATHRTTATPKAGPGVVRKNPGVGNGDDEAAELMQQVNVLKLTVEDLEKERDFYFGKLRNIELICQENEGENNPVLQRIVDILYATDEGFVIPDEGGPQEEQEEY"}, "B2": {"name": "recombinant full-length human CEP41 (his-tag cleaved) (protein, UniProt Q9BYV8-1 1-373)", "chain": "MSLRRHIGNPEYLMKRIPQNPRYQHIKSRLDTGNSMTKYTEKLEEIKKNYRYKKDELFKRLKVTTFAQLIIQVASLSDQTLEVTAEEIQRLEDNDSAASDPDAETTARTNGKGNPGEQSPSPEQFINNAGAGDSSRSTLQSVISGVGELDLDKGPVKKAEPHTKDKPYPDCPFLLLDVRDRDSYQQCHIVGAYSYPIATLSRTMNPYSNDILEYKNAHGKIIILYDDDERLASQAATTMCERGFENLFMLSGGLKVLAQKFPEGLITGSLPASCQQALPPGSARKRSSPKGPPLPAENKWRFTPEDLKKIEYYLEEEQGPADHPSRLNQANSSGRESKVPGARSAQNLPGGGPASHSNPRSLSSGHLQGKPWK"}}, "key": {"[1]": {"target": "tubulin from goat brain (microtubules) (goat)", "test": "co-sedimentation"}, "[2]": {"target": "tubulin from goat brain (microtubules) (goat)", "test": "co-sedimentation", "remark": "listed apart in the source"}}, "note": "Read-outs that look alike come from different tables or passages of the source. These are yes or no findings as the source states them, for the method shown. Binding can be weak; no strength is given. Sequences can lack the tags named with a protein. For part of these data: Binding seen in cells or lysates may run through a third protein.", "data": [{"binder": "B1", "values": [{"measurement": "binding", "setting": "[1]", "result": "binds"}]}, {"binder": "B2", "values": [{"measurement": "binding", "setting": "[1]", "result": "binds"}, {"measurement": "binding", "setting": "[2]", "result": "binds"}]}]}
